Reference: publication PMC4160250

Sequences of proteins named here, by UniProt entry; tags and fusion partners are left off.
UniProt P45974: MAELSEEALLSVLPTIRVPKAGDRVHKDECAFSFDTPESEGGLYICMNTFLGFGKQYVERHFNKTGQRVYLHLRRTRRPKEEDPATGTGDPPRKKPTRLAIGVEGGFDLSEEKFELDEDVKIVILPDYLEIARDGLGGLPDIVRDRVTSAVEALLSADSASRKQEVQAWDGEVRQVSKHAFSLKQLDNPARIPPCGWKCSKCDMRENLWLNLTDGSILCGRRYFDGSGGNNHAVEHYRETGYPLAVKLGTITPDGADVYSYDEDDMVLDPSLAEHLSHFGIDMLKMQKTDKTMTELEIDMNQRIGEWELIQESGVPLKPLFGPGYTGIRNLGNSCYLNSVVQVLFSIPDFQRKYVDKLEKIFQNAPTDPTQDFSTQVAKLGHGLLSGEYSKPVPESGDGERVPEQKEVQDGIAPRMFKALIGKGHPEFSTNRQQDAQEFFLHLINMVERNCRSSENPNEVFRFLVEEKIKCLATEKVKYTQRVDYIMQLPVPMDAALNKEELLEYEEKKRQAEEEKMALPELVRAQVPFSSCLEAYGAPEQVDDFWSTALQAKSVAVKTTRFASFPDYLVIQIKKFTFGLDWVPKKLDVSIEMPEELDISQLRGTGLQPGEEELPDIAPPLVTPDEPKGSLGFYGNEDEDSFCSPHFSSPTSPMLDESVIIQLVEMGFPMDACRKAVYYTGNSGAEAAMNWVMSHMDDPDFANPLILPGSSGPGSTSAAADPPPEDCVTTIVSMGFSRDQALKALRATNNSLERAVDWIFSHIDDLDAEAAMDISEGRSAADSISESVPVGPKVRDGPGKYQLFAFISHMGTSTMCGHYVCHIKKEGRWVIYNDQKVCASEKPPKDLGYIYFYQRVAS
UniProt P22314: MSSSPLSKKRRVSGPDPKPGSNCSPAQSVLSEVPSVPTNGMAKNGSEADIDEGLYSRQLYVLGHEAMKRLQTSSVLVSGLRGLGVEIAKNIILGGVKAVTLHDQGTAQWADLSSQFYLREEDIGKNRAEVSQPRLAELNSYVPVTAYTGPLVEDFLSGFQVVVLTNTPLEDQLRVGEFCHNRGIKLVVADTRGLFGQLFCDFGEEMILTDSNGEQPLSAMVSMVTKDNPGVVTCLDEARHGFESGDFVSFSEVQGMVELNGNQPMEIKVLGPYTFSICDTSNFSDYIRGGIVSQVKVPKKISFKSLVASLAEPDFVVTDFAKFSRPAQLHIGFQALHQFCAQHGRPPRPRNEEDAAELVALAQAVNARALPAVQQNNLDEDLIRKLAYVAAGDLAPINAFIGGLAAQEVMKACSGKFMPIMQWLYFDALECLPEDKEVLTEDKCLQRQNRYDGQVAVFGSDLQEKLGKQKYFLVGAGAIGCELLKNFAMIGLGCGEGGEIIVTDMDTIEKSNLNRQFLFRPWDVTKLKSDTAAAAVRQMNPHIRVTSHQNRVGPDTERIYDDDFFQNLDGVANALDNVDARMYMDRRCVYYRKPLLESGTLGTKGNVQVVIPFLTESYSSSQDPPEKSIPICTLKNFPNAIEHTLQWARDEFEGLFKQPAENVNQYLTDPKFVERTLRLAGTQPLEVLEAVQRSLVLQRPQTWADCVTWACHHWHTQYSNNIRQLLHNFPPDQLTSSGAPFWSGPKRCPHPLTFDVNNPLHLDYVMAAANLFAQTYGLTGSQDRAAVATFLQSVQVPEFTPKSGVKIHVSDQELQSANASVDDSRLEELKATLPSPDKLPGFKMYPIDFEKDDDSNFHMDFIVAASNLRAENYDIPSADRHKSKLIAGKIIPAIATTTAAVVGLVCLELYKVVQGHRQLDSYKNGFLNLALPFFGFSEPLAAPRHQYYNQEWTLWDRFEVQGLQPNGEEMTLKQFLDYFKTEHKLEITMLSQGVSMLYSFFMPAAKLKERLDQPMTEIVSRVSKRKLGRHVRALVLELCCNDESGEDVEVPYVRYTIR

Molecular target: T1, GST-fused DC-UbP (human) (UniProt Q8WUN7)
T1 sequence: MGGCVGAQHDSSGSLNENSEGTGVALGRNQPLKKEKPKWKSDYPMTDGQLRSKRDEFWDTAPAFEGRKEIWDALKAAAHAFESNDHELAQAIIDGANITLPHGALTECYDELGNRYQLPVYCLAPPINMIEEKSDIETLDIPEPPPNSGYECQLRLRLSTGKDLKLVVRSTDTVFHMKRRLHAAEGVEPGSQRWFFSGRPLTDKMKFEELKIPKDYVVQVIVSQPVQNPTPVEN
Experiment: affinity purification with mass spectrometry; GST-DC-UbP on glutathione-agarose, HEK 293T lysate (Buffer A: 20 mM HEPES, 150 mM NaCl, 1 mM EDTA, 10% glycerol, 1 mM DTT, 1% Triton X-100, pH 7.4), 3 h or overnight, washed with 350 mM NaCl, eluted with GSH, TCA-precipitated, silver-stained bands cut and read by LC-MS/MS; only the target purified

| binding | Substance |
| --- | --- |
| binds | P97/VCP of HEK 293T cells (from UniProt P55072 1-806) |
| binds | endogenous USP5 (ubiquitin-specific protease 5) of HEK 293T cells (from UniProt P45974 1-858) (enzyme) |
| binds | endogenous UbE1 (ubiquitin-activating enzyme E1) of HEK 293T cells (from UniProt P22314 1-1058) |

These are yes or no findings as the source states them, for the method shown. Binding seen in cells or lysates may run through a third protein. Here binding means that the protein was enriched with, or labelled near, the bait; the list need not be complete. Sequences can lack the tags named with a protein.
